SMILES strings stand for the structures. ± gives the standard deviation of the averaged measurements. The list shows a part of the results. Baselines shift from plate to plate; read single values as rough. Bounds are passed on as bounds.

This assay relates to E18 rat cortical neuron-glia co-culture. The assay can be described thus: total nuclei (DAPI) / Olig2+ nuclei (ratio); higher = more depletion of OPC/OL lineage cells. The note with it: treatment time: 8 days (DIV5-DIV13).

Turning to `CN(CCOc1ccc(NS(C)(=O)=O)cc1)CCc1ccc(NS(C)(=O)=O)cc1` [Dofetilide], the total nuclei is 2.66 (1 µM) and 2.8 (5 µM).

As to `Cc1cccc(C)c1NC(=O)C(C)N` (stereo not drawn) [Tocainide], the total nuclei reads like this: (1 µM) 3.71; (5 µM) greater than 40.

For the molecule `CC(Oc1c(Cl)cccc1Cl)C1=NCCN1` (stereo not drawn) [lofexidine], the total nuclei is, setting by setting: (1 µM) 2.87; (5 µM) 2.8.

On to `CN1CCN(C2=Nc3cc(Cl)ccc3Nc3ccccc32)CC1` [Clozapine], for which the total nuclei is, setting by setting: (1 µM) 5; (5 µM) greater than 40.

On to `C=CC[C@@H]1/C=C(\C)C[C@H](C)C[C@H](OC)[C@H]2O[C@@](O)(C(=O)C(=O)N3CCCC[C@H]3C(=O)O[C@H](/C(C)=C/[C@@H]3CC[C@@H](O)[C@H](OC)C3)[C@H](C)[C@@H](O)CC1=O)[C@H](C)C[C@@H]2OC` [Tacrolimus], for which the total nuclei came to 3.13 (1 µM) and 3.5 (5 µM).

On to `OCCN1CCN(CCCN2c3ccccc3Sc3ccc(Cl)cc32)CC1` [Perphenazine], for which the total nuclei is, setting by setting: (1 µM) 4.96; (5 µM) greater than 40.

For `COC(=O)[C@H](c1ccccc1Cl)N1CCc2sccc2C1` [Clopidogrel], the total nuclei (1 µM) was 3.8 and the total nuclei (5 µM) amounted to 3.7.

In the case of `CC(=O)OCC(=O)NCCCOc1cccc(CN2CCCCC2)c1` [Roxatidine acetate], the total nuclei is 2.62 (1 µM) and 2.7 (5 µM).

Turning to `CCn1cc(C(=O)O)c(=O)c2cc(F)c(N3CCN(C)CC3)cc21` [Pefloxacin], the total nuclei (1 µM) was found to be 2.87 and the total nuclei (5 µM) worked out at 3.

For the molecule `COC1=C(OC)C(=O)C(CCCCCCCCCCO)=C(C)C1=O` [Idebenone], the total nuclei (1 µM) turned out to be 3.65 and the total nuclei (5 µM) was greater than 40.

Take `COC(=O)C1=C(C)NC(C)=C(C(=O)OCC(C)C)C1c1ccccc1[N+](=O)[O-]` (stereo not drawn) [Nisoldipine]: the total nuclei is 4.19 (1 µM) and greater than 40 (5 µM).

As to `O=C(O)Cc1ccccc1Nc1c(Cl)cccc1Cl` [Diclofenac], the total nuclei by setting is: (1 µM) 3.9; (5 µM) 4.1.

For `CN(C)[C@@H]1C(O)=C(C(N)=O)C(=O)[C@@]2(O)C(O)=C3C(=O)c4c(O)ccc(Cl)c4[C@@H](O)[C@H]3C[C@@H]12` [Demeclocycline], the total nuclei reads like this: (1 µM) 2.87; (5 µM) 3.1.

Regarding `Nc1cc(N2CCCCC2)nc(N)[n+]1[O-]` [Minoxidil], the total nuclei stood at 2.89 (1 µM) and 3.2 (5 µM).

`CN1CCN2c3ncccc3Cc3ccccc3C2C1` (stereo not drawn) [Mirtazapine]: the total nuclei runs as follows: (1 µM) 3.27; (5 µM) 3.9.

Take `Clc1ccc2c(c1)CCc1cccnc1C2=C1CCNCC1` [Desloratadine]: the total nuclei reads like this: (1 µM) 3.5; (5 µM) 9.9.

In the case of `CN(C)CCOC(c1ccccc1)c1ccccc1` [Diphenhydramine], the total nuclei is 3.18 (1 µM) and 3 (5 µM).

For the molecule `Cc1cn([C@H]2C=C[C@@H](CO)O2)c(=O)[nH]c1=O` [Stavudine], the total nuclei by setting is: (1 µM) 3.94 ± 0.05; (5 µM) 4.45 ± 0.49.

With `CC1=C(C/C=C(\C)CCC[C@H](C)CCC[C@H](C)CCCC(C)C)C(=O)c2ccccc2C1=O` [Phylloquinone], the total nuclei (1 µM) was 2.69 and the total nuclei (5 µM) is 2.8.

On to `CN(C)CC/C=C1/c2ccccc2COc2ccc(CC(=O)O)cc21` [Olopatadine], for which the total nuclei runs as follows: (1 µM) 2.77; (5 µM) 2.8.

On to `C[C@]12CCC(=O)C=C1CC[C@@H]1[C@@H]2[C@@H](O)C[C@@]2(C)[C@H]1CC[C@]2(O)C(=O)COC(=O)CCC(=O)O` [Cortisol succinate], for which the total nuclei came out at 2.98 (1 µM) and 3 (5 µM).

As to `N=C(N)NC(=O)c1nc(Cl)c(N)nc1N` [Amiloride], the total nuclei is, setting by setting: (1 µM) 3.52; (5 µM) 5.

Consider `C[C@]12CC[C@@H]3c4ccc(O)cc4CC[C@H]3[C@@H]1CC[C@@H]2O` [Estradiol], for which the total nuclei (1 µM) was determined as 4.56 and the total nuclei (5 µM) was found to be 4.5.

`NS(=O)(=O)c1cc2c(cc1C(F)(F)F)NC(Cc1ccccc1)NS2(=O)=O` (stereo not drawn) [Bendroflumethiazide]: the total nuclei stood at 2.52 (1 µM) and 2.3 (5 µM).

With `COc1ccc2c3c1O[C@H]1C[C@@H](O)C=C[C@@]31CCN(C)C2` [Galantamine], the total nuclei reads like this: (1 µM) 4.45; (5 µM) 4.6.

Turning to `CNCCCCOc1ccccc1Cc1ccccc1` [Bifemelane], the total nuclei (1 µM) turned out to be 4.54 and the total nuclei (5 µM) worked out at 5.6.

Regarding `CCC1=C[C@@H]2CN(C1)Cc1c([nH]c3ccccc13)[C@@](C(=O)OC)(c1cc3c(cc1OC)N(C)[C@H]1[C@@](O)(C(=O)OC)[C@H](OC(C)=O)[C@]4(CC)C=CCN5CC[C@]31[C@@H]54)C2` [Vinorelbine], the total nuclei reads like this: (1 µM) 14.6; (5 µM) 39.8.

For `N[C@@H]1CONC1=O` [Cycloserine], the total nuclei by setting is: (1 µM) 4.16 ± 0.22; (5 µM) 5.

Consider `CSc1nc2cc(Cl)c(Oc3cccc(Cl)c3Cl)cc2[nH]1` [Triclabendazole], for which the total nuclei by setting is: (1 µM) 3.9; (5 µM) 4.1.

`CN(C)[C@@H]1C(O)=C(C(N)=O)C(=O)[C@@]2(O)C(O)=C3C(=O)c4c(O)cccc4C[C@H]3C[C@@H]12` [Sancycline]: the total nuclei came to 2.7 (1 µM) and 2.8 (5 µM).

For `O=C(O[C@@H]1Cc2c(O)cc(O)cc2O[C@@H]1c1cc(O)c(O)c(O)c1)c1cc(O)c(O)c(O)c1` [Epigallocatechin gallate], the total nuclei reads like this: (1 µM) 7.63; (5 µM) 7.7.

As to `O=C1CC2(CCCC2)CC(=O)N1CCCCN1CCN(c2ncccn2)CC1` [Buspirone], the total nuclei by setting is: (1 µM) 2.38; (5 µM) 3.1.

`CNCC[C@H](Oc1cccc2ccccc12)c1cccs1` [Duloxetine]: the total nuclei by setting is: (1 µM) 4.21 ± 1.8; (5 µM) 5.4 ± 1.1.

In the case of `COc1ccccc1OCC(O)CN1CCN(CC(=O)Nc2c(C)cccc2C)CC1` (stereo not drawn) [Ranolazine], the total nuclei by setting is: (1 µM) 5.49; (5 µM) 5.1.

`Nc1nc2ccc(OC(F)(F)F)cc2s1` [Riluzole]: the total nuclei is, setting by setting: (1 µM) 4.76; (5 µM) 5.8.

Consider `CC(C(=O)O)c1ccc(CC2CCCC2=O)cc1` (stereo not drawn) [loxoprofen], for which the total nuclei is, setting by setting: (1 µM) 2.71; (5 µM) 2.7.

In the case of `CC[C@H]1OC(=O)[C@H](C)C(=O)[C@H](C)[C@@H](O[C@@H]2O[C@H](C)C[C@H](N(C)C)[C@H]2O)[C@](C)(OC)C[C@@H](C)C(=O)[C@H](C)[C@H]2N(CCCCn3cnc(-c4cccnc4)c3)C(=O)O[C@]12C` [Telithromycin], the total nuclei is 4.7 (1 µM) and greater than 40 (5 µM).

On to `O=c1[nH]cc(F)c(=O)[nH]1` [5-Fluorouracil], for which the total nuclei is 26.3 (1 µM) and greater than 40 (5 µM).

Consider `OCCN1CCN(CCCN2c3ccccc3Sc3ccc(C(F)(F)F)cc32)CC1` [Fluphenazine], for which the total nuclei worked out at 3.07 (1 µM) and 31.5 (5 µM).

As to `CNC(=C[N+](=O)[O-])NCCSCc1csc(CN(C)C)n1` [Nizatidine], the total nuclei reads like this: (1 µM) 4.95; (5 µM) 4.8.

On to `CC(C)NCC(O)COc1ccc(COCCOC(C)C)cc1` (stereo not drawn) [Bisoprolol], for which the total nuclei is, setting by setting: (1 µM) 3.92; (5 µM) 4.1.

As for `Clc1ccc2nsnc2c1NC1=NCCN1` [Tizanidine], the total nuclei (1 µM) was found to be 3.24 and the total nuclei (5 µM) was 2.9.

As to `Nc1ccn([C@@H]2CS[C@H](CO)O2)c(=O)n1` [Lamivudine], the total nuclei came out at 4.58 ± 1.2 (1 µM) and 5.9 ± 3.1 (5 µM).

In the case of `CCCCCCCCCCC[C@@H](C[C@@H]1OC(=O)[C@H]1CCCCCC)OC(=O)[C@H](CC(C)C)NC=O` [Orlistat], the total nuclei runs as follows: (1 µM) 4.1; (5 µM) 13.7.

As for `Nc1nc2ccc(Cl)cc2c2nc(-c3ccco3)nn12`, the total nuclei runs as follows: (1 µM) 4.37; (5 µM) 6.5.

Regarding `C[C@](N)(Cc1ccc(O)c(O)c1)C(=O)O` [Methyldopa], the total nuclei reads like this: (1 µM) 4.13; (5 µM) 2.8.

Consider `CCN(Cc1ccncc1)C(=O)C(CO)c1ccccc1` (stereo not drawn) [Tropicamide], for which the total nuclei (1 µM) amounted to 2.75 and the total nuclei (5 µM) is 2.9.

As for `NNC(=O)c1ccncc1` [Isoniazid], the total nuclei by setting is: (1 µM) 3.55; (5 µM) 4.

On to `O=c1n(CCCN2CCN(c3cccc(Cl)c3)CC2)nc2ccccn12` [Trazodone], for which the total nuclei came to 5.54 (1 µM) and 4.9 (5 µM).

In the case of `COc1cc2c(cc1OC)C(=O)C(CC1CCN(Cc3ccccc3)CC1)C2` (stereo not drawn) [Donepezil], the total nuclei reads like this: (1 µM) 2.39; (5 µM) 2.7.

On to `CCCCC(=O)O[C@H]1CC[C@H]2[C@@H]3CCc4cc(O)ccc4[C@H]3CC[C@]12C` [Estradiol valerate], for which the total nuclei was determined as 2.7 (1 µM) and 4.5 (5 µM).

Regarding `CCOC(=O)C1=C(C)NC(C)=C(C(=O)OC)C1c1cccc([N+](=O)[O-])c1` (stereo not drawn) [Nitrendipine], the total nuclei by setting is: (1 µM) 2.71; (5 µM) 3.1.

Take `CN1C2CCCC1CC(NC(=O)c1nn(C)c3ccccc13)C2` (stereo not drawn) [Granisetron]: the total nuclei reads like this: (1 µM) 2.9; (5 µM) 2.8.

Regarding `CCOc1ccc2ccccc2c1C(=O)N[C@@H]1C(=O)N2[C@@H]1SC(C)(C)[C@@H]2C(=O)O` [Nafcillin], the total nuclei is, setting by setting: (1 µM) 2.63; (5 µM) 2.7.

Turning to `CN1[C@@H]2CC[C@H]1C[C@@H](OC(=O)c1c[nH]c3ccccc13)C2` [Tropisetron], the total nuclei was found to be 3.67 (1 µM) and 4.2 (5 µM).

As for `CCOC(=O)C1=C(C)NC(C)=C(C(=O)OC)C1c1cccc(Cl)c1Cl` (stereo not drawn) [Felodipine], the total nuclei reads like this: (1 µM) 4.37; (5 µM) 9.2.

As for `CC(=O)S[C@@H]1CC2=CC(=O)CC[C@]2(C)[C@H]2CC[C@@]3(C)[C@@H](CC[C@@]34CCC(=O)O4)[C@H]12` [Spironolactone], the total nuclei came out at 3.56 (1 µM) and 4.1 (5 µM).

As to `C[C@H]1O[C@@H](O[C@H]2[C@@H](O)C[C@H](O[C@H]3[C@@H](O)C[C@H](O[C@H]4CC[C@@]5(C)[C@H](CC[C@@H]6[C@@H]5C[C@@H](O)[C@]5(C)[C@@H](C7=CC(=O)OC7)CC[C@]65O)C4)O[C@@H]3C)O[C@@H]2C)C[C@H](O)[C@@H]1O` [Digoxin], the total nuclei (1 µM) turned out to be 3.89 and the total nuclei (5 µM) stood at 2.7.

Regarding `O=c1cnn([C@@H]2O[C@H](CO)[C@@H](O)[C@H]2O)c(=O)[nH]1` [Azauridine], the total nuclei by setting is: (1 µM) 2.99; (5 µM) 5.6.

On to `O=C1c2cccc3c2[C@H](CCC3)CN1[C@@H]1CN2CCC1CC2` [Palonosetron], for which the total nuclei is 2.7 (1 µM) and 3 (5 µM).

`CO[C@@]1(NC(=O)Cc2cccs2)C(=O)N2C(C(=O)O)=C(COC(N)=O)CS[C@@H]21` [Cefoxitin]: the total nuclei by setting is: (1 µM) 2.77; (5 µM) 2.8.

On to `CCCNC(C)C(=O)Nc1ccccc1C` (stereo not drawn) [Prilocaine], for which the total nuclei stood at 3.9 (1 µM) and 4 (5 µM).

For `NC(=O)c1cnccn1` [Pyrazinamide], the total nuclei runs as follows: (1 µM) 2.72; (5 µM) 2.8.

With `C[C@H]1c2cccc(O)c2C(=O)C2=C(O)[C@]3(O)C(=O)C(C(N)=O)=C(O)[C@@H](N(C)C)[C@@H]3[C@@H](O)[C@@H]21` [Doxycycline], the total nuclei reads like this: (1 µM) 2.29; (5 µM) 2.6.

On to `Nc1ncnc2c1ncn2[C@@H]1O[C@H](CO)C[C@H]1O` [Cordycepin], for which the total nuclei was greater than 40 (1 µM) and greater than 40 (5 µM).

As to `Cc1cccc(C)c1NC(=O)C1CCCCN1C` (stereo not drawn) [Mepivacaine], the total nuclei by setting is: (1 µM) 2.8; (5 µM) 2.8.

Turning to `CN1CCCC(n2nc(Cc3ccc(Cl)cc3)c3ccccc3c2=O)CC1` (stereo not drawn) [Azelastine], the total nuclei runs as follows: (1 µM) 4.4; (5 µM) 4.4.

For the molecule `CN1CCN(c2c(F)cc3c(=O)c(C(=O)O)cn4c3c2SCC4)CC1` [Rufloxacin], the total nuclei is 8.84 (1 µM) and 3.9 (5 µM).

With `C[C@]12C[C@H](O)[C@H]3[C@@H](CCC4=CC(=O)CC[C@@]43C)[C@@H]1CC[C@@H]2C(=O)CO` [Corticosterone], the total nuclei is, setting by setting: (1 µM) 2.81; (5 µM) 2.8.
